Measurements reported in PubChem BioAssay AID493246 (Drosophila RNAi Screening Center, 2011)
Test: 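Genes fly cells need to grow and stay alive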 (primary screen). System: Drosophila Kc and S2R+ cells. Reagent: long dsRNA against Drosophila genes. Detection: 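Cell number per well after knock-down, printed as raw plate values; calls were based on per-plate z-scores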. Scale: Kc cell number and S2R+ cell number: higher = more cells remaining. Hit rule: 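Counted as a hit if cell number falls by a z-score of at least 3 within its plate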.
In all, the deposit lists about 21,000 reagents; this is an unselected part of those with a known target gene and a result. Over the whole deposit, 429 (2%) were called active. 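Values are raw and not normalised between plates; calls rest on per-plate z-scores that were not deposited.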 The numbers tell different reagents against one gene apart. A plus sign joins genes that one reagent is predicted to hit. No sequences are given here. The record does not give: the amount of reagent, the time to read-out.

The first 2 entries as a preview:
CG5498
- Kc cell number, rep 1: 1.46e6
- Kc cell number, rep 2: 1.47e6
- S2R+ cell number, rep 1: 1.27e6
- S2R+ cell number, rep 2: 1.28e6
- outcome: inactive

CG5783
- Kc cell number, rep 1: 1.78e6
- Kc cell number, rep 2: 1.82e6
- S2R+ cell number, rep 1: 1.37e6
- S2R+ cell number, rep 2: 1.57e6
- outcome: inactive

The list itself, repeating the preview:
CG5498
- Kc cell number, rep 1: 1.46e6
- Kc cell number, rep 2: 1.47e6
- S2R+ cell number, rep 1: 1.27e6
- S2R+ cell number, rep 2: 1.28e6
- outcome: inactive

CG5783
- Kc cell number, rep 1: 1.78e6
- Kc cell number, rep 2: 1.82e6
- S2R+ cell number, rep 1: 1.37e6
- S2R+ cell number, rep 2: 1.57e6
- outcome: inactive

Obp85a (Odorant-binding protein 85a)
- Kc cell number, rep 1: 1.49e6
- Kc cell number, rep 2: 1.60e6
- S2R+ cell number, rep 1: 1.27e6
- S2R+ cell number, rep 2: 1.42e6
- outcome: inactive

CG12684
- Kc cell number, rep 1: 1.44e6
- Kc cell number, rep 2: 1.42e6
- S2R+ cell number, rep 1: 1.07e6
- S2R+ cell number, rep 2: 1.12e6
- outcome: inactive

CG11425
- Kc cell number, rep 1: 1.72e6
- Kc cell number, rep 2: 2.05e6
- S2R+ cell number, rep 1: 1.28e6
- S2R+ cell number, rep 2: 1.39e6
- outcome: inactive

Sytalpha (Synaptotagmin alpha)
- Kc cell number, rep 1: 1.66e6
- Kc cell number, rep 2: 1.68e6
- S2R+ cell number, rep 1: 1.34e6
- S2R+ cell number, rep 2: 1.53e6
- outcome: inactive

Ets97D (Ets at 97D)
- Kc cell number, rep 1: 1.40e6
- Kc cell number, rep 2: 1.48e6
- S2R+ cell number, rep 1: 9.62e5
- S2R+ cell number, rep 2: 1.09e6
- outcome: inactive

CG11293 (retired record)
- Kc cell number, rep 1: 1.50e6
- Kc cell number, rep 2: 1.55e6
- S2R+ cell number, rep 1: 1.24e6
- S2R+ cell number, rep 2: 1.36e6
- outcome: inactive

fog (folded gastrulation)
- Kc cell number, rep 1: 1.80e6
- Kc cell number, rep 2: 1.82e6
- S2R+ cell number, rep 1: 1.10e6
- S2R+ cell number, rep 2: 1.19e6
- outcome: inactive

CG11696
- Kc cell number, rep 1: 5.38e5
- S2R+ cell number, rep 1: 7.64e5
- outcome: inactive

CG13258
- Kc cell number, rep 1: 1.57e6
- Kc cell number, rep 2: 1.60e6
- S2R+ cell number, rep 1: 1.37e6
- S2R+ cell number, rep 2: 1.54e6
- outcome: inactive

eIF2D (eukaryotic translation initiation factor 2D)
- Kc cell number, rep 1: 1.00e6
- Kc cell number, rep 2: 1.39e6
- S2R+ cell number, rep 1: 1.01e6
- S2R+ cell number, rep 2: 9.74e5
- outcome: inactive

CG17159 + CG17162 #1
- Kc cell number, rep 1: 1.57e6
- Kc cell number, rep 2: 1.61e6
- S2R+ cell number, rep 1: 1.11e6
- S2R+ cell number, rep 2: 1.20e6
- outcome: inactive

CG17159 + CG17162 #2
- Kc cell number, rep 1: 1.56e6
- Kc cell number, rep 2: 1.58e6
- S2R+ cell number, rep 1: 1.13e6
- S2R+ cell number, rep 2: 1.29e6
- outcome: inactive
